From article doi:10.1101/2024.03.26.586676 come the findings set out here.

By UniProt entry, the sequences of proteins in these tests, tags left out. Residues count along the entry.
UniProt P48809, 1-88: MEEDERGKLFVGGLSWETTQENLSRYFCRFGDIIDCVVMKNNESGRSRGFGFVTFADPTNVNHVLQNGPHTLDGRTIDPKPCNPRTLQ

Weaker means in comparison with the reference protein, sequence or condition of that experiment. For some of these results: Tags and fusion partners may be left off the protein sequences shown. For some of these results: The exact form of at least one protein or probe is not confirmed.

Data set [1] addresses T1, Hrp48-RRM2 (Drosophila melanogaster) (UniProt P48809).
T1 sequence (looked up): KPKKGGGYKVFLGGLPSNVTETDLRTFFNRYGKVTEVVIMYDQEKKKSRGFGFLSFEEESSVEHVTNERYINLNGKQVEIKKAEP
As to the kind of experiment: NMR. To be noted: weak; residues 89-173.

Data set [2] addresses Hrp48-RRM1 (Drosophila melanogaster) (UniProt P48809). Put plainly: NMR. To be noted: fast exchange, residues 1-88.
The target in data set [3] is Hrp48-RRM12 (Drosophila melanogaster) (UniProt P48809). As to the kind of experiment: ITC. The following applies: residues 1-173.
Data set [4] has the same target. As to the kind of experiment: NMR. The following applies: strong interaction not confirmed; residues 1-173.

UUUUUU [6-mer-5 (U6)]: the binding result in data set [1] and in data set [2] (weak affinity) was “binds more weakly” throughout.

Turning to AACCUAGG [Region 5], the binding result in data set [3] (strong interaction not confirmed) and in data set [4] was “binds more weakly” throughout.

As to AACCUA [6-mer-1], in data set [2], the binding result is given as “binds more weakly”.

AAGAAC [6-mer-4]: in data set [2], the binding result was “binds more weakly”.

For UAGGCCUAAG [10-mer-CC], the binding result in data set [3] (fit not feasible) is “binds more weakly”.
